Values of other authors in patent publication US20230106731A1, “INHIBITORS OF MUTANT FAMILY TYROSINE-KINASES” (Spectrum Pharmaceuticals, Inc., priority 2017, published 2023).
At least one compound was matched to its structure with a doubt left.

Tested on: EGFR exon 20 driven NSCLC

For `C=CC(=O)Nc1cccc(Nc2nc(Nc3ccc(N4CCN(C(C)=O)CC4)cc3OC)ncc2C(F)(F)F)c1` [rociletinib], the “activity in patient derived xenograft model” value is listed as “minimal activity”.
